{"source": "the supplement of paper PMC5949888", "note": "Most values lie at the floor of the assay. Slopes are relative: functional sequences can read slightly below zero.", "data": [{"system": "Saccharomyces cerevisiae PS128 hsf1 delta, HSF1(1-493) fusion", "experiment": "growth estimate (transactivation domain function in HSF1 fusion, heat-shock survival) (a.u. (slope of normalised read count over time)); higher = stronger growth at 37°C, i.e. more transactivation activity", "settings": "library: random library", "values": [{"substance": "HRDRYHSTTACVS", "growth estimate": "< -0.25"}, {"substance": "VAVLRGRMNLHPL", "growth estimate": "< -0.25"}, {"substance": "KDLWGWHG", "growth estimate": -0.246}, {"substance": "GRYCAGICRNREHDFTHESH", "growth estimate": -0.231}, {"substance": "KRADCYGALTVRRIGCPPPR", "growth estimate": "< -0.25"}, {"substance": "SRWLDIALTLAQLETFESEF", "growth estimate": -0.043}, {"substance": "DTFLHAGKHGELQAV", "growth estimate": "< -0.25"}, {"substance": "QSVENGPNPRQTHVPGETQS", "growth estimate": "< -0.25"}, {"substance": "WDDTSD", "growth estimate": "< -0.25"}, {"substance": "RPLK", "growth estimate": "< -0.25"}, {"substance": "SPSMKAPLAWRLTGPVPLDV", "growth estimate": "< -0.25"}, {"substance": "TSPGNGGNIPDCVTLKHGR", "growth estimate": "< -0.25"}, {"substance": "SRKPLPGYQRGTLGKEIGRT", "growth estimate": "< -0.25"}, {"substance": "VNTDRVCGDGSPFQCGDYSQ", "growth estimate": "< -0.25"}, {"substance": "SDWHLDRPVPVTGKGVSTRV", "growth estimate": "< -0.25"}, {"substance": "PVNTSQYGFERVAWGLYSLR", "growth estimate": "< -0.25"}, {"substance": "KNPGFLGTDSRLCRGGNVEG", "growth estimate": "< -0.25"}, {"substance": "SFPHAARQR", "growth estimate": "< -0.25"}, {"substance": "GAEETMGC", "growth estimate": "< -0.25"}, {"substance": "QWLGLYEIGSLTSTRLDPGG", "growth estimate": 0.103}, {"substance": "IQGLQEGSPK", "growth estimate": "< -0.25"}, {"substance": "AYTWLPMWVDQRVPVRGMLR", "growth estimate": "< -0.25"}, {"substance": "WRKSLEGINSDNLRPVNVPS", "growth estimate": -0.246}, {"substance": "HWSGIRLYVEE", "growth estimate": -0.25}, {"substance": "PMVKN", "growth estimate": "< -0.25"}, {"substance": "SGRKTVTR", "growth estimate": "< -0.25"}, {"substance": "RTRSLAESDND", "growth estimate": "< -0.25"}, {"substance": "TLFTNRSGRGSYSLKSSLLC", "growth estimate": "< -0.25"}, {"substance": "GTMLERRT", "growth estimate": -0.0197}, {"substance": "SARVRFVDGKSSKCGVRADV", "growth estimate": "< -0.25"}, {"substance": "PVSI", "growth estimate": "< -0.25"}, {"substance": "MAIWGYAIPRRRDTSCGQGR", "growth estimate": -0.0764}, {"substance": "LLGKEGAPKAW", "growth estimate": "< -0.25"}, {"substance": "MLRGIHKKLFSV", "growth estimate": "< -0.25"}, {"substance": "GGIYISLTGK", "growth estimate": "< -0.25"}, {"substance": "PLANRSHDD", "growth estimate": "< -0.25"}, {"substance": "HTTGVRQSTNFGPWDARRVD", "growth estimate": "< -0.25"}, {"substance": "TLVAY", "growth estimate": "< -0.25"}, {"substance": "RLSMLRLCVTEVKYRLHRPS", "growth estimate": "< -0.25"}, {"substance": "ITRLRAGYMGVHSPEGPFVC", "growth estimate": "< -0.25"}, {"substance": "PLLYAAVSLFWMCRGTCVSM", "growth estimate": "< -0.25"}, {"substance": "TVGTKIICGRLYQLSGPIPI", "growth estimate": "< -0.25"}, {"substance": "YKGSIEKSLLALKGLSGTQK", "growth estimate": "< -0.25"}, {"substance": "LSVYSSLGVI", "growth estimate": -0.25}, {"substance": "KGR", "growth estimate": "< -0.25"}, {"substance": "QIAAVNDQTLEDLVHMVIS", "growth estimate": "< -0.25"}, {"substance": "LTLGQWVR", "growth estimate": "< -0.25"}, {"substance": "VIKKVLRSMGTCSNSL", "growth estimate": "< -0.25"}, {"substance": "GIAV", "growth estimate": "< -0.25"}, {"substance": "TLGFPITGPATPTPGNLYTK", "growth estimate": "< -0.25"}, {"substance": "LSEPEW", "growth estimate": "< -0.25"}, {"substance": "RTER", "growth estimate": "< -0.25"}, {"substance": "GNIPDLRGSIFVPHDRSEHA", "growth estimate": "< -0.25"}, {"substance": "TVVQMHACPGHRYSSRS", "growth estimate": "< -0.25"}, {"substance": "LPCQLSHHFRSLHVERVRHW", "growth estimate": "< -0.25"}, {"substance": "PPQPSHLGVFHLLGPSTGSA", "growth estimate": "< -0.25"}, {"substance": "RGSDTDWGVYVTLASIAIRV", "growth estimate": "< -0.25"}, {"substance": "VLEGRRELRAVECRVVL", "growth estimate": "< -0.25"}, {"substance": "GININPAFVRPGFRGLRPEM", "growth estimate": "< -0.25"}, {"substance": "VNPQLIRLIADYSHVLGFNR", "growth estimate": "< -0.25"}, {"substance": "WRGPFQLKDSNICAGHVGAL", "growth estimate": -0.195}, {"substance": "SGIHEIPVRARNSLHRMQYS", "growth estimate": "< -0.25"}, {"substance": "TSDLSEVGRDF", "growth estimate": "< -0.25"}, {"substance": "PLREFLWVQLGIAVGES", "growth estimate": "< -0.25"}, {"substance": "ESSNVARSSTAKQGNRWPHP", "growth estimate": "< -0.25"}, {"substance": "GMN", "growth estimate": "< -0.25"}, {"substance": "PGNPKVGGQSWANKKVSNRL", "growth estimate": -0.231}, {"substance": "TMSCLDSRLELCLSTGRRQS", "growth estimate": "< -0.25"}, {"substance": "ARAPRRPLDLEIQDEAACRQ", "growth estimate": "< -0.25"}, {"substance": "THGTMFMG", "growth estimate": "< -0.25"}, {"substance": "SVSISLTGGAEVRVLTPRRA", "growth estimate": "< -0.25"}, {"substance": "EMSISVGESYRCDSCVTWDG", "growth estimate": "< -0.25"}, {"substance": "QSVTI", "growth estimate": "< -0.25"}, {"substance": "IHIGPLAAPLGVRGAWWVGH", "growth estimate": "< -0.25"}, {"substance": "HKGEPQRYATMLYFVISGAV", "growth estimate": "< -0.25"}, {"substance": "IIKGTTVHVVSQCKAPRRHA", "growth estimate": "< -0.25"}, {"substance": "KWVSLMVRRRD", "growth estimate": "< -0.25"}, {"substance": "HFPNHATTFSDSLRV", "growth estimate": "< -0.25"}, {"substance": "RFGSRPVKPASTHIRVAFRP", "growth estimate": "< -0.25"}, {"substance": "AGLESVRLFLASPGSIITLN", "growth estimate": "< -0.25"}, {"substance": "GHRLISYWETST", "growth estimate": "< -0.25"}, {"substance": "TVAQNLEQKAGHSDRRGV", "growth estimate": "< -0.25"}, {"substance": "GDLDL", "growth estimate": "< -0.25"}, {"substance": "VCLCKRKALLFMMNG", "growth estimate": "< -0.25"}, {"substance": "FCSPQCFEAGGQKEGGREFI", "growth estimate": -0.228}, {"substance": "LMSDGAAGVP", "growth estimate": "< -0.25"}, {"substance": "IYLVHTVTKFYRGV", "growth estimate": "< -0.25"}, {"substance": "DIVLGCNGYLPSTDYVFVLQ", "growth estimate": "< -0.25"}, {"substance": "NLTLVQLFPGSCGTTVMACP", "growth estimate": "< -0.25"}, {"substance": "MPSFCYWTCSGLGTRLIRFV", "growth estimate": "< -0.25"}, {"substance": "RKGDWAARNMPR", "growth estimate": -0.243}, {"substance": "DAHGSLGEKGRKIIDTVMGY", "growth estimate": "< -0.25"}, {"substance": "APYGVGMS", "growth estimate": "< -0.25"}, {"substance": "SLQLRMGEIGRRLWNWMLTA", "growth estimate": "< -0.25"}, {"substance": "IEGAKRPYQAWWSVWRYCVS", "growth estimate": "< -0.25"}, {"substance": "MVRGFKTFSLGQTCALQLVP", "growth estimate": "< -0.25"}, {"substance": "CGDVRFDVPVVGHETWLVD", "growth estimate": -0.246}]}]}
